Measured values: PubChem BioAssay AID2685 (National Center for Advancing Translational Sciences (NCATS), 2010)
The list shows a part of the results. Further columns of the screen follow, without active or inactive calls. Compounds called inactive in the main read-out are mostly missing here. Potencies come from curve fits of mixed quality, noted in brackets.

Assay: qHTS Assay for Lipid Storage Modulators in Drosophila S3 Cells;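 for cell number change: cells counted by Cell Tracker Red CMTPX staining in the red channel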
Settings: BODIPY lipid droplet fluorescence, 18-24 h; for cell number change: measured here: cell count max response, cells fed with added oleic acid
Summary of the method: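 Drosophila S3 cells got compounds at several concentrations plus oleic acid (400 uM solution). Laser-scanning cytometry with 488 nm excitation read lipid droplets at 500-530 nm and cells at 575-640 nm. Percent activity was relative to 20 uM Triacsin C.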

[1] = measured here: lipid fluorescence (Fed channel) AC50, cells fed with added oleic acid
[2] = measured here: cell number channel AC50, cells fed with added oleic acid

SMILES	cell number change	AC50 [1]	AC50 [2]
O=C(CNC(=O)c1ccco1)OCC(=O)c1ccc2c(c1)CCCC2	28.6%	0.82 µM [rising, full curve, poor fit]	
Cc1nn(-c2ccccc2)c(C)c1NC(=O)COC(=O)c1cc(Cl)ccc1O	-18.7%	6.51 µM [falling, partial curve, poor fit]	
CCC1(CC)C(=O)N(C)C(=O)NC1=Nc1ccccc1	10.8%	13 µM [falling, partial curve, poor fit]	
CC(C)CNC(=O)CC(NCC(C)C)C(=O)O (stereo not given)	-43.3%		8.2 µM [falling, partial curve]
C/C(CC(=O)Nc1ccc2ccccc2c1)=N\NC(=O)c1ccc(O)c(O)c1	-3.04%	29.1 µM [falling, single point]	
O=C(C(Cl)Cl)N1c2ccccc2OCC1c1ccccc1 (stereo not given)		29.1 µM [falling, single point]	
CN1CCN(S(=O)(=O)c2ccc(Oc3ccc(F)c(Cl)c3)nc2)CC1	-1.5%	0.58 µM [falling, single point]	
Nc1nnc(SCC(=O)N2CCN(c3ccccc3)CC2)s1	3.87%		
CCn1cc(CN2N=C(C)CC2c2ccccc2)c(C)n1 (stereo not given)		29.1 µM [rising, single point]	
COc1ccc(-n2nc(C(=O)NCC(=O)N3CCN(c4ccccc4)CC3)c3ccccc3c2=O)cc1OC	0.794%		6.51 µM [rising, single point]
O=C(NCc1ccc2c(c1)OCO2)c1ccncc1	21.7%	20.6 µM [rising, single point]	
COc1ccc(C(C)NC(=O)c2ccc(Cl)cc2)cc1OC (stereo not given)	4.01%		6.51 µM [rising, single point]
CC[N+](C)(CC)CCOC(=O)C(O)(c1ccccc1)C1CCCCC1 (stereo not given)		0.0326 µM [rising, full curve, poor fit]	0.731 µM [rising, full curve, poor fit]
COC(=O)c1c(NC(=O)CSc2nnnn2-c2ccccc2)sc2c1CCCC2	2.17%		
CCOC(=O)C1CCCN(C(=O)CCc2nc3sc4c(c3c(=O)[nH]2)CCCC4)C1 (stereo not given)	14.7%	11.6 µM [rising, partial curve, poor fit]	
COc1cc2nc(C3CCC3)n(NC(=O)C3CCCC(OC)C3)c(=O)c2cc1OC (stereo not given)	1.26%	4.61 µM [falling, single point]	
COC(=O)c1ccccc1S(=O)(=O)Oc1ccc(-c2ccc(C(=O)O)cc2)cc1	-3.85%		
CC1CN(C(=O)c2ccc(S(=O)(=O)Nc3ccccc3F)cc2)CC(C)O1 (stereo not given)	6.83%		

In the list so far, two have two or more sulfur atoms.
SMILES	cell number change	AC50 [1]	AC50 [2]
Nc1nnc(SCC(=O)N2CCN(c3ccccc3)CC2)s1	3.87%		
COC(=O)c1c(NC(=O)CSc2nnnn2-c2ccccc2)sc2c1CCCC2	2.17%		
